Measurements: patent US20240271138A1, “METHODS AND COMPOSITIONS FOR MODULATING STING SIGNALING AND INNATE IMMUNE RESPONSES” (The Broad Institute, Inc., priority 2021, published 2024)
Results are given in words; binding and its absence hold for the method and conditions named. In cells and extracts the contact can be indirect. Some results given as binding are weak or reduced against the parent protein; the word gives no strength.

Protein sequences, listed by entry. Tags and fused reporters are not part of them. Lines headed by an entry give the natural chain unless they say otherwise; changes in a name come on top. Residues count along the entry.
UniProt Q86WV6: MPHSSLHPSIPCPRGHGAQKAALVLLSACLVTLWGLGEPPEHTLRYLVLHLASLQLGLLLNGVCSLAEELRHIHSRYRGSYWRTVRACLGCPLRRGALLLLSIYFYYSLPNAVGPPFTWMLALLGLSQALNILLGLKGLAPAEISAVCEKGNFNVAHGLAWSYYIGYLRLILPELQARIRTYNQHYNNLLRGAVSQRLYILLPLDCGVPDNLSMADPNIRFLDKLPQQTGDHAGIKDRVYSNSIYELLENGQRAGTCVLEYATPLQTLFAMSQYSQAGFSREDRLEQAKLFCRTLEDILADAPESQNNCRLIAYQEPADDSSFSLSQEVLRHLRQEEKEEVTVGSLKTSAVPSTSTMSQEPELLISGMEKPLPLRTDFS
UniProt P11142, residues 2-646: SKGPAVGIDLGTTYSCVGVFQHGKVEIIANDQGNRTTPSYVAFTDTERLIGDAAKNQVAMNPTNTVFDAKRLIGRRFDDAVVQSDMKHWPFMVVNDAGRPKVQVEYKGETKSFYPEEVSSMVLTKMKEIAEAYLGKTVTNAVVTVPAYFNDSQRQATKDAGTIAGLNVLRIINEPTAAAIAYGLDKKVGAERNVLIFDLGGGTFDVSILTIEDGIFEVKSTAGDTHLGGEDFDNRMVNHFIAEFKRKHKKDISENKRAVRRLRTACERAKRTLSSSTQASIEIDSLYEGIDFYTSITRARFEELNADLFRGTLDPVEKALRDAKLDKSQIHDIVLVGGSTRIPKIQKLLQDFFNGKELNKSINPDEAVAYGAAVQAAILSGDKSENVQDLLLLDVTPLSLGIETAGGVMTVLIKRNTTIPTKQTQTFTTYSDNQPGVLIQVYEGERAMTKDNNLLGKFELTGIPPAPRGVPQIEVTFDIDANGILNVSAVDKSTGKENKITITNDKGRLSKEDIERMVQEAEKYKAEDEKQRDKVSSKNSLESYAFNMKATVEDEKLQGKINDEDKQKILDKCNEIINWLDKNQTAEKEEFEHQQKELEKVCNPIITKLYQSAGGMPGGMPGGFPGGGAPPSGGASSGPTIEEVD
UniProt O14964: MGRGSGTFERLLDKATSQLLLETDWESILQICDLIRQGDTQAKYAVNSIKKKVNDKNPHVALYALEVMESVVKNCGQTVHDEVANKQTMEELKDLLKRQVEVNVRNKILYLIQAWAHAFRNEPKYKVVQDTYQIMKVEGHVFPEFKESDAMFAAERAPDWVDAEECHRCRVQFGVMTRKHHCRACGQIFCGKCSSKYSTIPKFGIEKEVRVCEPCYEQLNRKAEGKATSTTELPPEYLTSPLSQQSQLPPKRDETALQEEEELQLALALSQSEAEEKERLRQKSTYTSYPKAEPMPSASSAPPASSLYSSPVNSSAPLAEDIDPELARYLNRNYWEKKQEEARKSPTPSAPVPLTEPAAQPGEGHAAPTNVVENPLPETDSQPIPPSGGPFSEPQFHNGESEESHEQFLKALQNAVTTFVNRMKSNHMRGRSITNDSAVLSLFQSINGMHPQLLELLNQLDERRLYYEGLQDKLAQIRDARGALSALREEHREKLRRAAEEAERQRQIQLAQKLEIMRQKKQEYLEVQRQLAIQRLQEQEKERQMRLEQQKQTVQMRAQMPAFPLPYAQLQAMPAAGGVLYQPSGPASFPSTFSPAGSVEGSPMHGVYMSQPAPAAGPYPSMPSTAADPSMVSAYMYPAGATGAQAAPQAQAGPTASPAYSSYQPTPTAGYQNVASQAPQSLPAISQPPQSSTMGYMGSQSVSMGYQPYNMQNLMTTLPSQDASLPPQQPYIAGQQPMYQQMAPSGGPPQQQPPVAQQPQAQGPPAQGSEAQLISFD
UniProt O75165: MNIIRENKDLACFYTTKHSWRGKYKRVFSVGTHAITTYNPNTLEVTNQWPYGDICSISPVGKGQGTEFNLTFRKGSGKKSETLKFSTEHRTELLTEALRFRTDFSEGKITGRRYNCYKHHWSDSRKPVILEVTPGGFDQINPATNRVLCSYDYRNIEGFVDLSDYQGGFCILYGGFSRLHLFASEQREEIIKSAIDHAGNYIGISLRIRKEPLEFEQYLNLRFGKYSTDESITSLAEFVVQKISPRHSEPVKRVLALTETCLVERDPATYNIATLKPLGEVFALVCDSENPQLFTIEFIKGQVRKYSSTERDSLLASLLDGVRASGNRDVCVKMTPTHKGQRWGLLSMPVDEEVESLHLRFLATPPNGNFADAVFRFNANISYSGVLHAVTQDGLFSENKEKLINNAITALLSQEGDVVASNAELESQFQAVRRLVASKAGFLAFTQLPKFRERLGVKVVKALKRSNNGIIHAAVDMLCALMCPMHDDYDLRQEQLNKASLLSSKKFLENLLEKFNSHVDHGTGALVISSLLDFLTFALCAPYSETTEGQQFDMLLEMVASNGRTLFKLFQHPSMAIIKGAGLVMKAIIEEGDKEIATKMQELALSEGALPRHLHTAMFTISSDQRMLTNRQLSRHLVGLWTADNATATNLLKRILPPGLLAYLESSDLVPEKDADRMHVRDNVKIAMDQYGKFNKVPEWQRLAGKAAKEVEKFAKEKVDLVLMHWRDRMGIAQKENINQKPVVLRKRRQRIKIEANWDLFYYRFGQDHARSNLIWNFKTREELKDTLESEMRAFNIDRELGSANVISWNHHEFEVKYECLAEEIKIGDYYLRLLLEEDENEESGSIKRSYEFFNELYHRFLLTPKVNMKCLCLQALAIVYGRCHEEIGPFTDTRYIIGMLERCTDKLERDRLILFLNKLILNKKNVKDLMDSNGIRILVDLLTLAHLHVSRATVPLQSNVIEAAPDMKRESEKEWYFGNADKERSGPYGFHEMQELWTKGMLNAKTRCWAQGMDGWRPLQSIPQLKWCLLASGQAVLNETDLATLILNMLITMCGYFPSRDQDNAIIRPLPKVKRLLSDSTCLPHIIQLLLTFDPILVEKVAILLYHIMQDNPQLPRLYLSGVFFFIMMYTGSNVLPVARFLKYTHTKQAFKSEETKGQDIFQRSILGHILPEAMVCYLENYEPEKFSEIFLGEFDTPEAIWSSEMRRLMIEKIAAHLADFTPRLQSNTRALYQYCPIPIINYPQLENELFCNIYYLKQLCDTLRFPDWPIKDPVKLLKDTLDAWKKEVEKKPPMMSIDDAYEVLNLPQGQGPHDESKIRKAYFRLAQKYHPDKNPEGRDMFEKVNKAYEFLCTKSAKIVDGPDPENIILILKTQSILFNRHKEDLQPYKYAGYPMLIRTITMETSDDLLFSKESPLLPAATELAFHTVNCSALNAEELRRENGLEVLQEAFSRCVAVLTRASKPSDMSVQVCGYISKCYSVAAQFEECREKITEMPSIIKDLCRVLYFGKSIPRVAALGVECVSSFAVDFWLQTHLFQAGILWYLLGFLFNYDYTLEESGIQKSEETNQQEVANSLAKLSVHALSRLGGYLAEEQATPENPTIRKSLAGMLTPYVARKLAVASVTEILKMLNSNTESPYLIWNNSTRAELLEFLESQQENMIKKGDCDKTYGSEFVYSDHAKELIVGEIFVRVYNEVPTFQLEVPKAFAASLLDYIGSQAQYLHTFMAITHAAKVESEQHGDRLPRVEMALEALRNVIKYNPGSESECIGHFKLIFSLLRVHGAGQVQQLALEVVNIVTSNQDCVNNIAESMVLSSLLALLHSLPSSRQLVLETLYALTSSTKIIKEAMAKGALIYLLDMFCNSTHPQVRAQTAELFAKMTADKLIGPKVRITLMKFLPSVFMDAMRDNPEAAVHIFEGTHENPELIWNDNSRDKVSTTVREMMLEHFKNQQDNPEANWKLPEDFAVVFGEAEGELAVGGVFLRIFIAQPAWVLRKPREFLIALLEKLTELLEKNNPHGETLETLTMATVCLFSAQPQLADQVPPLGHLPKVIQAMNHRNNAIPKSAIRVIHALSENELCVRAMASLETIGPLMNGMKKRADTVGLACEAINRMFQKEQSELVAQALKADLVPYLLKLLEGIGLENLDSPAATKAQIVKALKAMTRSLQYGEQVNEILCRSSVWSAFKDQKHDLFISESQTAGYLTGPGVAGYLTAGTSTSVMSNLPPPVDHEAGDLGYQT
UniProt Q8NEZ2: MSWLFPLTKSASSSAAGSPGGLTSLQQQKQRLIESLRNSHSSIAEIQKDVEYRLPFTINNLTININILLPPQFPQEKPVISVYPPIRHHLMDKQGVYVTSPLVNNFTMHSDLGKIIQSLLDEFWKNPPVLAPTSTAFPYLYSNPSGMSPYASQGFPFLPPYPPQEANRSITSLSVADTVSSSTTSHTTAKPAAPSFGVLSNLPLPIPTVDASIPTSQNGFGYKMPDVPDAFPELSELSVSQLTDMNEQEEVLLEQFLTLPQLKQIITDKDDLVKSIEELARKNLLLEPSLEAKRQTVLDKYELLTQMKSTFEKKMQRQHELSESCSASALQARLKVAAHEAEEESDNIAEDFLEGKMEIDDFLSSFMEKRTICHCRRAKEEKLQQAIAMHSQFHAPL

What was measured:
[1] = molecular target: HA-tagged STING R284S (constitutive active SAVI mutant) (human) (UniProt Q86WV6); assay: anti-HA co-immunoprecipitation from 293T lysate, immunoblot (FIG. 3E)
[2] = molecular target: HA-tagged STING V155M (constitutive active SAVI mutant) (human) (UniProt Q86WV6); assay: as above
[3] = molecular target: HSC70 (human) (UniProt P11142); assay: mNeonGreen-trap co-immunoprecipitation from U937 lysate, with or without cGAMP, immunoblot (FIG. 11F)
[4] = molecular target: HA-tagged wild-type (WT) STING (human) (UniProt Q86WV6); assay: co-immunoprecipitation of STING-HA with mCh-DNAJC13 (FIG. 21B)
[5] = molecular target: HA-tagged wild-type (WT) STING (human) (UniProt Q86WV6); assay: co-immunoprecipitation of STING-HA with mCh-DNAJC13, digitonin only or digitonin and cGAMP for 4 hours (FIG. 21B)
[6] = molecular target: HA-tagged STING R284S (constitutive active SAVI mutant) (human) (UniProt Q86WV6); assay: anti-HA co-immunoprecipitation from 293T lysate, immunoblot (FIG. 3F)
[7] = molecular target: HA-tagged STING V155M (constitutive active SAVI mutant) (human) (UniProt Q86WV6); assay: as above

## mScarlet-HGS (hepatocyte growth factor-regulated tyrosine kinase substrate fused to mScarlet) (from UniProt O14964 1-777)
[1]
  binding: binds
[2]
  binding: binds

## STING-mNeonGreen (from UniProt Q86WV6 1-379)
[3]
  binding: binds

## mCherry fused with DNAJC13 (mCh-DNAJC13) (from UniProt O75165 1-2243)
[4]
  binding: binds
[5]
  binding: binds

## mScarlet-VPS37A (vacuolar protein sorting-associated protein 37A fused to mScarlet) (from UniProt Q8NEZ2 1-397)
[6]
  binding: binds
[7]
  binding: binds
